The exact form of at least one protein or probe is not confirmed. For part of these data: No signal at the amounts used counts as a negative. For part of these data: At least one verdict rests on a figure or table, not on a statement of the authors.
Tests used:
[1] = molecular target: MBP-NAC53 (Arabidopsis thaliana) (UniProt Q949N0); assay: EMSA
[2] = system: MBP-NAC53 ΔRM (Arabidopsis thaliana); assay: EMSA
[3] = molecular target: MBP-NAC78 (Arabidopsis thaliana) (UniProt Q84K00); assay: EMSA
[4] = system: MBP-NAC78 ΔRM (Arabidopsis thaliana); assay: EMSA
[5] = molecular target: MBP-NAC53 (Arabidopsis thaliana) (UniProt Q949N0); assay: competition with a labelled probe; settings: EMSA
[6] = molecular target: MBP-NAC78 (Arabidopsis thaliana) (UniProt Q84K00); assay: competition with a labelled probe; settings: EMSA
[7] = 25-100X unlabelled competitor vs LHCa3 probe
[8] = 25-100X unlabelled competitor vs PSAD1 probe

Protein sequences, listed by entry. Tags and fused reporters are not part of them. Lines headed by an entry give the natural chain unless they say otherwise; changes in a name come on top.
UniProt Q949N0: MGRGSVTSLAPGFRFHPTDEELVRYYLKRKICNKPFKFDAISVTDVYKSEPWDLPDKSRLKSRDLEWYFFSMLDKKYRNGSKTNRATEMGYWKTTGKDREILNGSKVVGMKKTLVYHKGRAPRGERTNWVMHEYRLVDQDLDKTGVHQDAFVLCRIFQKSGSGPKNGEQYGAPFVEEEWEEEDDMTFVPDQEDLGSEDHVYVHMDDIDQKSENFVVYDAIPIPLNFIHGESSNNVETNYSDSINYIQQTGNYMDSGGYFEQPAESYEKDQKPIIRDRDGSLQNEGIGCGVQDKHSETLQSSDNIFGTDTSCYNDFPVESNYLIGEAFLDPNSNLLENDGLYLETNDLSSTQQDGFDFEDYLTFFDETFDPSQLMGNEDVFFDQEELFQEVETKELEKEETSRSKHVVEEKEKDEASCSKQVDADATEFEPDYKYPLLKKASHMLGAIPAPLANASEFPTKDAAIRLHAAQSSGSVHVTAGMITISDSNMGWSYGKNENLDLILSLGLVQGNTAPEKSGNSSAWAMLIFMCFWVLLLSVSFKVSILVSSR
UniProt Q84K00: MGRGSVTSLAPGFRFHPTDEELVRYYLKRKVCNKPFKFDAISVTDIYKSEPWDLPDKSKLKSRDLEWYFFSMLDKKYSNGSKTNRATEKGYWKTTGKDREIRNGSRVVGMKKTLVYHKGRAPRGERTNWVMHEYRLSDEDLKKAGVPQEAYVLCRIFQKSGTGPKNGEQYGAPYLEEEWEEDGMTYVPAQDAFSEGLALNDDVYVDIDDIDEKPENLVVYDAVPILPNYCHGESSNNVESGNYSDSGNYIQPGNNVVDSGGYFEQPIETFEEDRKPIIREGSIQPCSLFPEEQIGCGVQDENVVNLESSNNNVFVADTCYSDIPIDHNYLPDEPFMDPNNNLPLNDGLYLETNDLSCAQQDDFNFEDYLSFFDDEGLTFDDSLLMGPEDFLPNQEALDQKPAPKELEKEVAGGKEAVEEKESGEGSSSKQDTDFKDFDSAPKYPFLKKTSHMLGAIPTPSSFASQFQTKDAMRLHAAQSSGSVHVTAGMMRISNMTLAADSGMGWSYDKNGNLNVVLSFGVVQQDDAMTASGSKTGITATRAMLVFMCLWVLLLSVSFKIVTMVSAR

Sequence	binding result [1]	binding result [2]	binding result [3]	binding result [4]	binding result [5, 7]	binding result [6, 7]	binding result [5, 8]	binding result [6, 8]
GTTTCTTAATGCCCAAGGATGAAGG (double strand) [PRCE_LHCA3 probe]	binds	no binding	binds	no binding	–	–	–	–
GTTTCTTAATTTTTTAGGATGAAGG (double strand) [PRCE_LHCA3 mut competitor]	–	–	–	–	no binding	no binding	–	–
TTTGATTCAGGCCCAAGTTTCAATC (double strand) [PRCE_PSAD1 probe]	binds	no binding	binds	no binding	–	–	–	–
TTTGATTCAGTTTTTAGTTTCAATC (double strand) [PRCE_PSAD1 mut competitor]	–	–	–	–	–	–	no binding	no binding

Source: paper doi:10.1101/2023.12.11.571118
